# The other results are listed elsewhere or left out.
# B1: Clec12b (Mus musculus), Q149M0 (protein)
# chain: MSDEVTYATLMLQDSARVRGNQDGNNLRKEGHPAQSSLWRGAALSLMTLCLVLVTGLVTLATMFLQVSNDINSDSEKLSQLQKSIHPQQDNLSESLNSSRKSLTEESLQSQISALLERQEQMATKLCKEFLIHASDHKCNPCPKTWQWYGNSCYYFSINEEKSWSDSRKDCIDKNATLVKIDSTEERDLLQSQLSLTFSFFWLGLSWNSSGRNWLWEDGSFPPPTLFSDKELASFNGSRDCAYFERGNIYASRCSAEIPWICEKTASLVKTEDLD
# Columns and labels:
# Assay in all cases: glycan array binding signal (z-score within array); higher = stronger binding
# Conditions in all cases: glycan notation: IUPAC condensed, linker removed
# [1] = biological target: Gal(b1-4)GlcNAc(b1-3)Gal(b1-4)GlcNAc(b1-3)Gal(b1-4)GlcNAc
# Method in brief: (§1)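 Negative Z-scores can be read as non-binding. The Z-score is calculated within each array and then averaged across arrays of one protein sequence at different concentrations or buffers and across linkers. Arrays, 3228 in all, were curated from the Consortium for Functional Glycomics database and kept only where the protein sequence was available.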
# [2] = biological target: Gal(b1-4)GlcNAc(b1-3)Gal(b1-4)GlcNAc(b1-3)Gal(b1-4)GlcNAc(b1-2)Man(a1-3)[Gal(b1-4)GlcNAc(b1-3)Gal(b1-4)GlcNAc(b1-3)Gal(b1-4)GlcNAc(b1-2)Man(a1-6)]Man(b1-4)GlcNAc(b1-4)GlcNAc
# Method in brief: as §1
# [3] = biological target: Gal(b1-4)GlcNAc(b1-3)Gal(b1-4)GlcNAc(b1-3)Gal(b1-4)GlcNAc(b1-2)Man(a1-3)[Gal(b1-4)GlcNAc(b1-3)Gal(b1-4)GlcNAc(b1-3)Gal(b1-4)GlcNAc(b1-2)Man(a1-6)]Man(b1-4)GlcNAc(b1-4)[Fuc(a1-6)]GlcNAc
# Method in brief: as §1
# [4] = biological target: Gal(b1-4)GlcNAc(b1-3)Gal(b1-4)GlcNAc(b1-3)Gal(b1-4)GlcNAc(b1-2)[Gal(b1-4)GlcNAc(b1-3)Gal(b1-4)GlcNAc(b1-3)Gal(b1-4)GlcNAc(b1-6)]Man(a1-6)[Gal(b1-4)GlcNAc(b1-3)Gal(b1-4)GlcNAc(b1-3)Gal(b1-4)GlcNAc(b1-2)Man(a1-3)]Man(b1-4)GlcNAc(b1-4)[Fuc(a1-6)]GlcNAc
# Method in brief: as §1
# [5] = biological target: Gal(b1-4)GlcNAc(b1-3)Gal(b1-4)GlcNAc(b1-3)Gal(b1-4)GlcNAc(b1-3)Gal(b1-4)GlcNAc(b1-2)Man(a1-3)[Gal(b1-4)GlcNAc(b1-3)Gal(b1-4)GlcNAc(b1-3)Gal(b1-4)GlcNAc(b1-3)Gal(b1-4)GlcNAc(b1-2)Man(a1-6)]Man(b1-4)GlcNAc(b1-4)GlcNAc
# Method in brief: as §1
# [6] = biological target: Gal(b1-4)GlcNAc(b1-3)Gal(b1-4)GlcNAc(b1-3)Gal(b1-4)GlcNAc(b1-3)Gal(b1-4)GlcNAc(b1-2)Man(a1-3)[Gal(b1-4)GlcNAc(b1-3)Gal(b1-4)GlcNAc(b1-3)Gal(b1-4)GlcNAc(b1-3)Gal(b1-4)GlcNAc(b1-2)Man(a1-6)]Man(b1-4)GlcNAc(b1-4)[Fuc(a1-6)]GlcNAc
# Method in brief: as §1
# [7] = biological target: Gal(b1-4)GlcNAc(b1-3)Gal(b1-4)GlcNAc(b1-3)Gal(b1-4)GlcNAc(b1-3)Gal(b1-4)GlcNAc(b1-2)[Gal(b1-4)GlcNAc(b1-3)Gal(b1-4)GlcNAc(b1-3)Gal(b1-4)GlcNAc(b1-3)Gal(b1-4)GlcNAc(b1-6)]Man(a1-6)[Gal(b1-4)GlcNAc(b1-3)Gal(b1-4)GlcNAc(b1-3)Gal(b1-4)GlcNAc(b1-3)Gal(b1-4)GlcNAc(b1-2)Man(a1-3)]Man(b1-4)GlcNAc(b1-4)[Fuc(a1-6)]GlcNAc
# Method in brief: as §1
# [8] = biological target: Gal(b1-4)GlcNAc(b1-3)Gal(b1-4)GlcNAc(b1-3)Gal(b1-4)GlcNAc(b1-3)Gal(b1-4)GlcNAc(b1-3)Gal(b1-4)GlcNAc(b1-2)Man(a1-3)[Gal(b1-4)GlcNAc(b1-3)Gal(b1-4)GlcNAc(b1-3)Gal(b1-4)GlcNAc(b1-3)Gal(b1-4)GlcNAc(b1-3)Gal(b1-4)GlcNAc(b1-2)Man(a1-6)]Man(b1-4)GlcNAc(b1-4)GlcNAc
# Method in brief: as §1
# [9] = biological target: Gal(b1-4)GlcNAc(b1-3)Gal(b1-4)GlcNAc(b1-3)Gal(b1-4)GlcNAc(b1-3)Gal(b1-4)GlcNAc(b1-3)Gal(b1-4)GlcNAc(b1-2)Man(a1-3)[Gal(b1-4)GlcNAc(b1-3)Gal(b1-4)GlcNAc(b1-3)Gal(b1-4)GlcNAc(b1-3)Gal(b1-4)GlcNAc(b1-3)Gal(b1-4)GlcNAc(b1-2)Man(a1-6)]Man(b1-4)GlcNAc(b1-4)[Fuc(a1-6)]GlcNAc
# Method in brief: as §1
# [10] = biological target: Gal(b1-4)GlcNAc(b1-3)Gal(b1-4)GlcNAc(b1-3)Gal(b1-4)GlcNAc(b1-3)Gal(b1-4)GlcNAc(b1-3)Gal(b1-4)GlcNAc(b1-2)[Gal(b1-4)GlcNAc(b1-3)Gal(b1-4)GlcNAc(b1-3)Gal(b1-4)GlcNAc(b1-3)Gal(b1-4)GlcNAc(b1-3)Gal(b1-4)GlcNAc(b1-6)]Man(a1-6)[Gal(b1-4)GlcNAc(b1-3)Gal(b1-4)GlcNAc(b1-3)Gal(b1-4)GlcNAc(b1-3)Gal(b1-4)GlcNAc(b1-3)Gal(b1-4)GlcNAc(b1-2)Man(a1-3)]Man(b1-4)GlcNAc(b1-4)[Fuc(a1-6)]GlcNAc
# Method in brief: as §1
# [11] = biological target: Gal(b1-4)GlcNAc(b1-3)Gal(b1-4)GlcNAc(b1-3)Gal(b1-4)GlcNAc(b1-3)Gal(b1-4)GlcNAc(b1-3)Gal(b1-4)GlcNAc(b1-3)Gal(b1-4)GlcNAc(b1-2)Man(a1-3)[Gal(b1-4)GlcNAc(b1-3)Gal(b1-4)GlcNAc(b1-3)Gal(b1-4)GlcNAc(b1-3)Gal(b1-4)GlcNAc(b1-3)Gal(b1-4)GlcNAc(b1-3)Gal(b1-4)GlcNAc(b1-2)Man(a1-6)]Man(b1-4)GlcNAc(b1-4)GlcNAc
# Method in brief: as §1
# [12] = biological target: Gal(b1-4)GlcNAc(b1-3)Gal(b1-4)GlcNAc(b1-3)GalNAc
# Method in brief: as §1
# [13] = biological target: Gal(b1-4)GlcNAc(b1-3)Gal(b1-4)GlcNAc(b1-3)[Gal(b1-4)GlcNAc(b1-3)Gal(b1-4)GlcNAc(b1-6)]GalNAc
# Method in brief: as §1
# [14] = biological target: Gal(b1-4)GlcNAc(b1-3)Gal(b1-4)GlcNAc(b1-6)[Gal(b1-3)]GalNAc
# Method in brief: as §1
# [15] = biological target: Gal(b1-4)GlcNAc(b1-3)Gal(b1-4)[Fuc(a1-3)]GlcNAc(b1-3)Gal(b1-4)[Fuc(a1-3)]GlcNAc
# Method in brief: as §1
# [16] = biological target: Gal(b1-4)GlcNAc(b1-3)GalNAc
# Method in brief: as §1
# [17] = biological target: Gal(b1-4)GlcNAc(b1-3)[Fuc(a1-3)GlcNAc(b1-6)]Gal(b1-4)Glc
# Method in brief: as §1
# [18] = biological target: Gal(b1-4)GlcNAc(b1-3)[Gal(b1-4)GlcNAc(b1-6)]Gal(b1-4)GlcNAc
# Method in brief: as §1
# [19] = biological target: Gal(b1-4)GlcNAc(b1-3)[GlcNAc(b1-6)]Gal(b1-4)GlcNAc
# Method in brief: as §1
binder,measurement,setting,value
B1,glycan array binding signal (z-score),[1],-0.352
same,glycan array binding signal (z-score),[2],0.747
same,glycan array binding signal (z-score),[3],0.125
same,glycan array binding signal (z-score),[4],0.621
same,glycan array binding signal (z-score),[5],0.598
same,glycan array binding signal (z-score),[6],-0.356
same,glycan array binding signal (z-score),[7],0.114
same,glycan array binding signal (z-score),[8],0.028
same,glycan array binding signal (z-score),[9],-0.022
same,glycan array binding signal (z-score),[10],-0.146
same,glycan array binding signal (z-score),[11],0.314
same,glycan array binding signal (z-score),[12],-0.489
same,glycan array binding signal (z-score),[13],0.566
same,glycan array binding signal (z-score),[14],-0.381
same,glycan array binding signal (z-score),[15],-0.078
same,glycan array binding signal (z-score),[16],-0.173
same,glycan array binding signal (z-score),[17],-0.595
same,glycan array binding signal (z-score),[18],0.133
same,glycan array binding signal (z-score),[19],-0.625

# Part of the list above, as tab-separated lines.
binder	measurement	setting	value
B1	glycan array binding signal (z-score)	[2]	0.747
same	glycan array binding signal (z-score)	[4]	0.621

# Source: the supplement of paper PMC8728848
